Results deposited as PubChem BioAssay AID1259308 (NCATS, 2017).
Shown is a random part of about 59,000 deposited reagents. In the full data, about 1,510 (2.6%) got an active call. 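Calls use total luciferase alone and ignore viability, so some active siRNAs may act by altering cell number.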 Reagents against one gene are numbered here. Further read-outs or replicates are left out here.

Purpose: 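Knock-downs that increase output of a recombinant reporter protein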 (primary screen)
Cells: human HEK293 embryonic kidney cells stably expressing firefly luciferase (HEK-CMV-Luc2-Hygro)
Reagent: single siRNA against human genes, 0.8 pmol siRNA per well
Time to read-out: 72 h
Measurement: 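Reporter luminescence and viable-cell signal on separate replicate plates, given as percent of non-targeting control and median/MAD z-scores, plus per-cell luciferase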
Scale: total luciferase, z-score: higher = more reporter protein produced
Call rule: 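An siRNA counts as active if its total luciferase robust z-score exceeds 3; genes with two or more such siRNAs out of three were retested with fresh siRNAs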
Calls: active = raised luciferase; inactive = no rise

DGKH (GeneID 160851) #1 | total luciferase, z-score = 0.912; call = inactive
DGKH (GeneID 160851) #2 | total luciferase, z-score = 2.07; call = inactive
DGKH (GeneID 160851) #3 | total luciferase, z-score = 0.465; call = inactive
C22orf15 (GeneID 150248) #1 | total luciferase, z-score = 1.92; call = inactive
C22orf15 (GeneID 150248) #2 | total luciferase, z-score = 2.74; call = inactive
C22orf15 (GeneID 150248) #3 | total luciferase, z-score = 0.265; call = inactive
LOC401442 (GeneID 401442) #1 | total luciferase, z-score = 0.342; call = inactive
LOC401442 (GeneID 401442) #2 | total luciferase, z-score = 0.523; call = inactive
LOC401442 (GeneID 401442) #3 | total luciferase, z-score = -1.6; call = inactive
POLR2D (GeneID 5433) #1 | total luciferase, z-score = -3.25; call = inactive
POLR2D (GeneID 5433) #2 | total luciferase, z-score = -2.94; call = inactive
POLR2D (GeneID 5433) #3 | total luciferase, z-score = -3.36; call = inactive
ITGAX (GeneID 3687) #1 | total luciferase, z-score = 3.15; call = active
ITGAX (GeneID 3687) #2 | total luciferase, z-score = -1.12; call = inactive
ITGAX (GeneID 3687) #3 | total luciferase, z-score = -0.306; call = inactive
C1orf141 (GeneID 400757) #1 | total luciferase, z-score = -0.562; call = inactive
C1orf141 (GeneID 400757) #2 | total luciferase, z-score = -0.143; call = inactive
C1orf141 (GeneID 400757) #3 | total luciferase, z-score = 1.23; call = inactive
P2RX4 (GeneID 5025) #1 | total luciferase, z-score = 3.24; call = active
P2RX4 (GeneID 5025) #2 | total luciferase, z-score = 0.591; call = inactive
P2RX4 (GeneID 5025) #3 | total luciferase, z-score = -0.348; call = inactive
DNAJC3 (GeneID 5611) #1 | total luciferase, z-score = 0.0628; call = inactive
DNAJC3 (GeneID 5611) #2 | total luciferase, z-score = -0.356; call = inactive
DNAJC3 (GeneID 5611) #3 | total luciferase, z-score = 0.752; call = inactive
PCAT18 (GeneID 728606) #1 | total luciferase, z-score = 1.68; call = inactive
PCAT18 (GeneID 728606) #2 | total luciferase, z-score = -2.07; call = inactive
PCAT18 (GeneID 728606) #3 | total luciferase, z-score = 0.734; call = inactive
ATOSB (GeneID 80256) #1 | total luciferase, z-score = -0.224; call = inactive
ATOSB (GeneID 80256) #2 | total luciferase, z-score = 0.29; call = inactive
ATOSB (GeneID 80256) #3 | total luciferase, z-score = 0.472; call = inactive
IFRD1 (GeneID 3475) #1 | total luciferase, z-score = -0.358; call = inactive
IFRD1 (GeneID 3475) #2 | total luciferase, z-score = 0.0372; call = inactive
IFRD1 (GeneID 3475) #3 | total luciferase, z-score = 3.05; call = active

5 entries from above, sorted by “total luciferase, z-score”, highest first:
PCAT18 (GeneID 728606) #1 | total luciferase, z-score = 1.68; call = inactive
DNAJC3 (GeneID 5611) #3 | total luciferase, z-score = 0.752; call = inactive
PCAT18 (GeneID 728606) #3 | total luciferase, z-score = 0.734; call = inactive
ATOSB (GeneID 80256) #1 | total luciferase, z-score = -0.224; call = inactive
PCAT18 (GeneID 728606) #2 | total luciferase, z-score = -2.07; call = inactive
